Series [1] deals with bloodstream forms of Trypanosoma brucei (clone 427-221a). Briefly: In vitro toxicity assay (resazurin), T. brucei bloodstream forms. To be noted: selectivity index GI50,HL-60/GI50,parasite. It is filed as cell-based. Here is the method:
(§1) Bloodstream forms of Trypanosoma brucei (clone 427-221a) and human myeloid leukaemia HL-60 cells were maintained in Baltz medium supplemented with 16.7% heat-inactivated bovine serum in a humidified atmosphere containing 5% CO2 at 37 °C. Promastigotes of Leishmania major (strain MHOM/IL/81/Friedlin [16]) were cultured in Schneider’s insect medium supplemented with 10% heat-inactivated foetal bovine serum in a humidified atmosphere containing 5% CO2 at 27 °C.
(§2) Toxicity assays were carried out as previously described with some modifications. In brief, cells were seeded in 96-well plates in a final volume of 200 μL of appropriate medium containing various concentrations of test compounds (tenfold dilution from 100 µM to 1 nM) and 1% DMSO. Wells just containing medium and 1% DMSO served as controls. The initial cell densities were 1 × 10^4/mL for T. brucei bloodstream forms, 2.5 × 10^5/mL for L. major promastigotes, and 5 × 10^4/mL for HL-60 cells. After 24 h incubation, 20 µL of a 0.5 mM resazurin solution prepared in PBS was added and the cells were incubated for a further 48 h. Thereafter, the absorbance of wells was read on a BioTek ELx808 microplate reader using a test wavelength of 570 nm and a reference wavelength of 630 nm. The 50% growth inhibition (GI50) value, i.e., the concentration of a compound necessary to reduce the growth rate of cells by 50% compared to the control, was determined by linear interpolation. The minimum inhibitory concentration (MIC) values, i.e. the concentration of a compound at which all trypanosomes and human cells were killed, was determined microscopically.

For series [2], the system named is promastigotes of Leishmania major (strain MHOM/IL/81/Friedlin). As to the kind of experiment: In vitro toxicity assay (resazurin), L. major promastigotes. It is filed as cell-based. To be noted: for L. major GI50 ratio: selectivity index GI50,HL-60/GI50,parasite; for L. major MIC ratio: selectivity index MIC HL-60/MIC parasite. The protocol:
as §1, §2
In general terms: The colour change of resazurin is a common sign of viable cells or microbes.

The structures appear in SMILES notation.

As to `C=C1[C@@H]2CC[C@@]3(C)[C@H](c4ccoc4)OC(=O)C[C@]13O[C@H]1CC(=O)C(C)(C)[C@H](CC(=O)OC)[C@]12C` [Compound 6, methyl angolensate], in series [1], the “T. brucei GI50 ratio” value was greater than 16.6. Also, in series [2], the “L. major GI50 ratio” value worked out at 1 and the “L. major MIC ratio” value is on record as 1.
In the case of `CC1(C)C(=O)C=C[C@]2(C)C3CC[C@@]4(C)[C@H](c5ccoc5)OC(=O)[C@H]5O[C@]54[C@]3(C)C(=O)C[C@@H]12` (stereo partly drawn) [Compound 4, 7-deacetyl-7-oxogedunin], the “T. brucei GI50 ratio” value in series [1] is reported as greater than 31.4. Also, in series [2], the “L. major GI50 ratio” value is greater than 13.1 and the “L. major MIC ratio” value was 1.
`CC1(C)C(=O)C=C[C@]2(C)C3CC[C@@]4(C)[C@H](c5ccoc5)OC(=O)[C@H]5O[C@]54[C@]3(C)[C@H](O)C[C@@H]12` (stereo partly drawn) [Compound 3, 7-deacetylgedunin]: the “T. brucei GI50 ratio” value in series [1] stood at 3.2. For the same compound, in series [2], the “L. major GI50 ratio” value was determined as 4.0 and the “L. major MIC ratio” value is listed as 1.

Values taken from article PMC7253382, “Trypanocidal and leishmanicidal activity of six limonoids” (Journal of Natural Medicines, 2020).
